# Source: article PMC12040169 (PLOS Biology, 2025)
# The other results are listed elsewhere or left out.
# System: T1, CTL2-GFP (C. trachomatis L2/434/Bu, GFP-expressing)
# T1 construct: L2/434/Bu, GFP-expressing
# Parameters: species or system HeLa; Intracellular C. trachomatis growth in HeLa cells, bulk GFP fluorescence relative to DMSO
# Conditions: bulk GFP, single well; 28.5 h, 10 µM; inhibitor
row,SMILES,% of control remaining
1,O=C(CSc1nnc(-c2cccnc2)o1)c1ccccc1 [CBK068446],0%
2,Cc1nnc(CN(C)C2CCN(CCCc3ccccc3)C2)n1C (stereo not shown) [CBK304000],114.227%
3,COc1cc(F)ccc1S(=O)(=O)NC1CC(C)(C)NC(C)(C)C1 [CBK266428],106.603%
4,C=CCNC(=O)[C@H]1C=CCN1C(=O)Nc1ccccc1Cl [CBK282348],114.808%
5,O=C(CN(Cc1ccc(F)cc1)S(=O)(=O)c1ccc(Cl)cc1)Nc1ccc2c(c1)OCCO2 [CBK265346],112.598%
6,COc1ccc(-c2noc(CNC(=O)Cc3ccc(-c4ccccc4)cc3)n2)cc1 [CBK269272],143.379%
7,CCNC(=O)N1CCN(CCCCN2C(=O)CC3(CCCC3)CC2=O)CC1 [CBK024999C],112.208%
8,Cc1ccccc1NC(=O)c1cnc2sccn2c1=O [CBK287447],144.13%
9,COC(=O)CCC(=O)N1CCC2(CCN(Cc3ccccc3)C2)C1 (stereo not shown) [CBK136852],94.5239%
10,CC(NS(=O)(=O)c1ccccc1Cl)C(=O)N1CCCCC1C (stereo not shown) [CBK305797],163.316%
11,CCOC(=O)c1sc(NS(=O)(=O)Cc2ccccc2[N+](=O)[O-])nc1C [CBK047458],114.799%
12,Cc1ccc([N+](=O)[O-])cc1NC(=O)CSc1nnc(Cc2ccccc2)o1 [CBK265889],97.0345%
13,O=S(=O)(NCCc1cccc(C(F)(F)F)c1)c1cccs1 [CBK044068],126.328%
14,Cc1cccc(NC(=O)c2cnc3n(c2=O)CCS3)c1 [CBK287375],109.583%
15,c1ccc(CCNC2CCCc3c2[nH]c2ccc(C4CCCCC4)cc32)cc1 (stereo not shown) [CBK261602C],120.262%
16,O=C(NC(c1ccccc1)c1ccccc1)N1CCN(Cc2ccccc2)CC1 [CBK155630],123.209%
17,COc1ccc(/C=C(\C)C(=O)NCc2ccccc2OC2CCNC2)cc1OC (stereo not shown) [CBK034157T],128.432%
18,CCC(C(=O)NCC1CCCN(C(C)C)C1)n1cnc2ccccc21 (stereo not shown) [CBK282706],126.741%
19,N#C/C(=C\c1cn(-c2ccccc2)nc1-c1cccc(S(=O)(=O)N2CCCC2)c1)c1nc2ccccc2c(=O)[nH]1 [CBK266296],194.436%
20,CC#CC1CCCC2N(c3ccccc3)CCN12 (stereo not shown) [CBK028191],92.8282%

# A second format for some results above.
row	SMILES	% of control remaining
3	COc1cc(F)ccc1S(=O)(=O)NC1CC(C)(C)NC(C)(C)C1 [CBK266428]	106.603%
4	C=CCNC(=O)[C@H]1C=CCN1C(=O)Nc1ccccc1Cl [CBK282348]	114.808%

# The list continues:

row,SMILES,% of control remaining
1,Cc1noc(-c2cn(C)nc2C2CCCCN2CC2CC2)c1C (stereo not shown) [CBK283408],119.807%
2,CCOc1ccc(-c2n[nH]c(=S)n2CCC(=O)N2CCCN(Cc3ccc(C#N)cc3)CC2)cc1 [CBK297893],124.734%
3,COc1ccc(CN2CCN(C(=O)c3cccc(F)c3)CC2)cc1 [CBK304396],115.055%
4,CCOc1ccc2c(c1)N1C(=O)NC(C(F)(F)F)(C(F)(F)F)N=C1S2 [CBK025440],143.225%
5,COC(=O)[C@@H]1Cc2ncn(C)c2CN1C(=O)c1ccc(C#N)cc1 [CBK288994],126.079%
6,CN(Cc1ccccc1)C(=O)c1c[nH]nc1C1CCCCN1Cc1ccccc1Cl (stereo not shown) [CBK285936],117.316%
7,CCNC(=O)c1cn(Cc2ccccc2)nn1 [CBK073904],124.995%
8,COc1ccc(C2=NN(CN3C(=O)C(=O)c4cc(Br)ccc43)C(c3cccc([N+](=O)[O-])c3)C2)cc1 (stereo not shown) [CBK263490],83.3377%
9,COCC(=O)N1CCC(c2nc(C)n3c(C)csc23)CC1 [CBK285198],107.19%
10,CCOc1ccc(CCNC(=O)c2cnc(Nc3ccccc3OC)c3ccccc23)cc1OCC [CBK291185],145.478%
11,Cc1[nH]c2ccc(C(=O)O)cc2c1CC(=O)O [CBK267080],138.813%
12,CCCC(=O)N[C@@H](Cn1c(=O)oc2ccccc21)C(C)C [CBK284536],138.578%
13,Brc1csc(CN2CCN3CCCC3C2C2CCCCC2)c1 (stereo not shown) [CBK026298],131.771%
14,CS(=O)(=O)Nc1cc2ccccc2c(-c2ccc(OC(F)(F)F)cc2)n1 [CBK085757],63.3038%
15,CCOC(=O)CN(Cc1ccccc1)Cc1ccc(OC)cc1 [CBK126460],100%
16,NCCN(Cc1cccc(Cl)c1)C(=O)NC(c1ccccc1)c1ccccc1 [CBK046203C],91.2412%
17,COc1cc(/C=C/C(=O)O)cc(S(=O)(=O)N2CCOCC2)c1OC [CBK264078],100.695%
18,COc1cc(CN2CCN(Cc3ccco3)CC2)cc(OC)c1OC [CBK074520G],115.733%
19,O=C(c1ccc(-c2cnc3[nH]c(=O)n(CCc4cccnc4)c3n2)cc1)N1CCOCC1 [CBK064334],164.368%
20,O=C(O)c1ccc(N2C(=O)C(O)=C(C(=O)c3ccccc3)C2c2cccc([N+](=O)[O-])c2)cc1 (stereo not shown) [CBK263760],105.963%
